Results from US20230399408A1 (AB THERAPEUTICS, published 2023).
These are yes or no findings as the source states them, for the method shown. Some binding calls cover weakened binding; strength is not graded here. For some of these results: Where a sequence is shown, tags or fusion partners need not be part of it.

Protein sequences, listed by entry. Tags and fused reporters are not part of them. Residues count along the entry.
UniProt P08581, residues 25-932: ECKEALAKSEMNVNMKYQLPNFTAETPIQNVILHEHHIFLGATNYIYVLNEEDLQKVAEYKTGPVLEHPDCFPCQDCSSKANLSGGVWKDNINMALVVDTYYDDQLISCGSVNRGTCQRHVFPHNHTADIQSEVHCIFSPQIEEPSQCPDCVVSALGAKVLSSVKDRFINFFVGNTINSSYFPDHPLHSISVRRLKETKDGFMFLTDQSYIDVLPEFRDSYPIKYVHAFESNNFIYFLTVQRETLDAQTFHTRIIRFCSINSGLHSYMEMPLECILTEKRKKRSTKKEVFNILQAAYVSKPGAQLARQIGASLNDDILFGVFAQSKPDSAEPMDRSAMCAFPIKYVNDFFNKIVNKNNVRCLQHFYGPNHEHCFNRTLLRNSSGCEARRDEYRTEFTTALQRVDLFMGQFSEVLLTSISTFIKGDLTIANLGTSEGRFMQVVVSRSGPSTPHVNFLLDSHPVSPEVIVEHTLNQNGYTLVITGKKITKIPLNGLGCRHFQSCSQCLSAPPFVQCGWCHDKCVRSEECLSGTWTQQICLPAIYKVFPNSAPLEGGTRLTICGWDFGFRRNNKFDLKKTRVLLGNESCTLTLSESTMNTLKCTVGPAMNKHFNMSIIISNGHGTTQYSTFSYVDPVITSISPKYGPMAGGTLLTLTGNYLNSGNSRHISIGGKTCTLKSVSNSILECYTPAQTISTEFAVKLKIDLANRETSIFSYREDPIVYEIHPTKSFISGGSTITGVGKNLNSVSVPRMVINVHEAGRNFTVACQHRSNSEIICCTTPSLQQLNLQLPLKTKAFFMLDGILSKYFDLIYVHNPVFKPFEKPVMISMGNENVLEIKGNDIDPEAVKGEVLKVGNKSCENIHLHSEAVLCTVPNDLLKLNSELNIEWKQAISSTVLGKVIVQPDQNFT

Assays:
[1] = target: monkey cMET (monkey (Cynomolgus sp.)); assay: binding ELISA, plate coated with monkey cMET at 1 ug/mL, clone at 10 ug/mL, biotinylated anti-c-Myc 9E-10 and streptavidin detection
c-MET-His tag protein [2] = target: T1, c-MET-His tag protein (human, UniProt P08581 25-932); assay: BLI (Probelife Gator), cMET-His on HIS probe, first antibody at 15 ug/ml
T1 construct: also called cMET-HIS tagged; not shown: His tag

c-MET-His tag protein [3] = target: T1, c-MET-His tag protein; assay: BLI (Probelife Gator), cMET-His on HIS probe after 1A12-cMET-VHH-Fc, second antibody at 5 ug/ml
c-MET-His tag protein [4] = target: T1, c-MET-His tag protein; assay: BLI epitope binning, cMET-His captured on HIS probes

B1: 1A12 (VHH)
VHH: QVQLVESGGGLVQPGGSLRLSCAASGFTFNSYWMYWVRLAPGKGIEWVSATDTRGQNTYYTDSVKGRFTISRDNAKNMVSLQMNNLKSEDTAVYYCALGNRWGTFPNRGPGTLVTVSS
notes: it is not the VHH-Fc fusion m11; also called cMET-1A12; clone 1A12
With B1 the binding [1] was “binds”.

B2: cMET-1H1 VHH-Fc (Fc fusion, not shown: a dimerising Fc or GST)
chain: QVQLVESGGGLVQPGGSLKLSCAVSASLFSINTMGWFRQGPGKEREFVAAISWSGGNYYATFARGRFTISSEDAKDTVYLQMDNLKPEDTAVYFCGADRWGTGSMNAPDYDYWGRGTLVTVSS
For B2, the binding (c-MET-His tag protein [2]) was “binds”, the binding (c-MET-His tag protein [3]) was “binds” and the binding (c-MET-His tag protein [4]) was “binds”.
